The record followed here is patent publication US20200308559A1, “Composition for detecting protein-protein interactions comprising fragments of secreted alkaline phosphatase (SEAP) and method for detecting protein-protein interactions using the same” (priority 2019, published 2020).

By UniProt entry, the sequences of proteins in these tests, tags left out. Where a name states a change or a piece, a line headed by the entry shows the natural chain unless it says otherwise.
UniProt P05187: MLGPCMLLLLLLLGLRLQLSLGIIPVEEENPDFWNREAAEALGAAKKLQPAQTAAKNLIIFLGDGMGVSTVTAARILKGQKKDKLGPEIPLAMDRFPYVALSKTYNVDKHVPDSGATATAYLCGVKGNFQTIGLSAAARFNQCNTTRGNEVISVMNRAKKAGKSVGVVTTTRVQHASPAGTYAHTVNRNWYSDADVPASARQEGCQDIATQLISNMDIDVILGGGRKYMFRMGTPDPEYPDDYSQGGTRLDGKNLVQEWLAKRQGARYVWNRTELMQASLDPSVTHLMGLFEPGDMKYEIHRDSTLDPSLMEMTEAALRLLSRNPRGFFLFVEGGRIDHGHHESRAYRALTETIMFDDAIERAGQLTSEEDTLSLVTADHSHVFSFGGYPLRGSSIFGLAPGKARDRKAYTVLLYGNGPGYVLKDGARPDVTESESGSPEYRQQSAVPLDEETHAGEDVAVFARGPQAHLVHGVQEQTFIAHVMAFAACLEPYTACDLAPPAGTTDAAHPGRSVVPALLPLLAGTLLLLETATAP

These are yes or no findings as the source states them, for the method shown. Some binding calls cover weakened binding; strength is not graded here.

For the experiment, the target named is SEAP C-terminal fragment cleaved at amino acid position 8 (9-502), fused to FRB (Homo sapiens (Human)) (UniProt P05187). Put plainly: split-SEAP complementation in HEK-293T cells, 100 nM rapamycin, pNpp absorbance at 405 nm.

On to “HA-FKBP-snSEAP8 (SEAP N-terminal fragment 1-8 fused to the C-terminal of FKBP12) (from UniProt P62942 2-108)”, for which the binding result is listed as “binds”.
